Test: general procedure: Fmoc solid-phase peptide synthesis; Rink amide resin; PyBOP
Settings: whole synthesis, scale 15 μmol

In the case of “Fmoc-Lys(Fmoc)-Thr(tBu)-Gly-Arg(Pmc)-Ala-Lys(Boc)-Arg(Pmc)-Arg(Pmc)-Met-Gln(Trt)-Tyr(tBu)-Ans(Trt)-Arg(Pmc)-Arg(Pmc)”, the crude mass is reported as 35 mg, the isolated mass is reported as 16 mg and the isolated yield is reported as 36%.
